The list shows a part of the results.
B1: il10ra_site1_normal_mot_HHH_b1_02997_000000220_0001_39_52_H_._HHH_b2_02307_0001_0000100006_0000001_1_af2pred_0001 (protein)
chain: SSSSSEVLRLIREAIELLNDGNPEEAREVAEEARRLAEEANNYVFRIAIELIIRIIEREGSSSSS
B2: il10ra_site1_sap_18_mot_HHH_b1_01821_000000158_0001_23_39_H_._HHH_b2_02007_0001_0000400032_0000001_0_0001 (protein)
chain: SSSSSDEELVIELIMRLLELFANQDREELEKLTEEAEEVAEELNDPYLRQIVRFAKAFLNSSSSS
B3: il10ra_site1_sap_14_mot_HHH_b1_06348_000000162_0001_1_15_H_._HHH_b1_08757_0001_0000400019_0000001_0_0001_af2pred_0001 (protein)
chain: SEEERIEIAVEHVAELANAPSVEVEVSNGEVTVTVEGDDEAARYVRLFLEALARILNIPLEIHVE
B4: il10ra_site1_normal_mot_HHH_b1_08356_000000013_0001_43_57_H_._HHH_b2_03796_0001_0000400048_0000002_0_af2pred_dldesign_0_af2pred (protein)
chain: SSSSSSSKIDELRAAIEAALAAGDTGRATQLLIELTKLAAEAEDQDTLAEARALNGRLASSSSSS
B5: il10ra_site1_normal_mot_HHH_b2_00479_000000091_0001_1_12_H_._HHH_b2_03517_0001_0000100001_0000002_0 (protein)
chain: SSSSSDADEVYELLREILELLANNDEEEAKELIEEVRKLVEELGNFALEFAVRVLERRVNSSSSS
B6: il10ra_site1_normal_mot_HHH_b2_00230_000000227_0001_1_19_H_._HHH_b2_06456_0001_0000100007_0000001_0 (protein)
chain: SSSDEAYELVRRAIEEVIELFRKGNPEEAERLLEEVEELLKELNNDAALWSIEHLLRLLRNSSSS
B7: il10ra_site1_normal_mot_HHH_b2_08186_000000021_0001_43_56_H_._HHH_b1_04312_af2_0001_0000100006_0000002_0 (protein)
chain: SSSSDREERIKELQEEIEELIERNDRERAIELLLEALQLAYEAGNAELLRELWELLRLVESSSSS
B8: il10ra_site1_normal_mot_HHH_b2_00033_000000036_0001_41_54_H_._HHH_b1_02211_0001_0000400014_0000001_0 (protein)
chain: SSSSSSSSVRRLAAEAVRFAMELGDDETFQRLWELYKRYIEEGDPRYEEEIEELLEELSSSSSSS
B9: il10ra_site1_normal_mot_HHH_b1_05357_000000034_0001_23_39_H_._HHH_b2_05126_af2_0001_0000200002_0000002_0_af2pred_0001 (protein)
chain: SSSSSDEEYREEVEELLEKAEQIEDPHEVAYLLIRAFAIAFRLGDPELEEEVKRVAHELLSSSSS
B10: il10ra_site1_sap_12_mot_6805e7cfcec1a9f49da1e1cd80eb4878_0001_af2_000000116_0001_1_14_H_._a4d94f43bc0d423f3d0edd362bd39fea_0001_0001_0000200008_0000001_0_0001_a … (protein)
chain: SSSSSDDEVLKLAAKALALAQRLGDEERAERLLRLIVRLYEEGDPEVEEELRKLAEEVLESSSSS
B11: il10ra_site1_normal_mot_HHH_b1_03094_000000294_0001_1_20_H_._HHH_b1_06894_0001_0000500019_0000001_1 (protein)
chain: SSSSSDLKERVLELSRQALRLALRGNPEEAREVLEEAEELAEELGNPRLLRVLRQLLQALSSSSS
B12: il10ra_site1_sap_15_mot_HHH_b1_05357_000000034_0001_23_39_H_._HHH_b2_00617_0001_0000100006_0000001_0_0001 (protein)
chain: SSSSDEELQEVLELLRRAIRLALRGNPEEAEKVLEEARRLAEEINDERIRKMIESLEKALRSSSS
B13: il10ra_site1_sap_28_mot_HHH_b1_01555_000000194_0001_1_18_H_._772cb577d49f115e122c84b1f84da933_0001_0001_0000200002_0000001_0_0001 (protein)
chain: SSSSSEVERYVKLALRFARRLFEDGDPEAARFLVEVAEEMAERNNNEELHEEARRLLEELESSSS
B14: il10ra_site1_sap_18_mot_HHH_b2_02927_000000097_0001_42_56_H_._HHH_b2_03336_0001_0000200019_0000002_0_0001 (protein)
chain: SSSSDEEYERAKELIQEIVELLREGNPEEAEKVLEELRKLAEERNSPVLEMVVRFLEERINSSSS
B15: il10ra_site1_sap_13_mot_HHH_b2_07144_000000289_0001_1_18_H_._HHH_b1_02371_af2_0001_0000100002_0000001_0_0001 (protein)
chain: SSSSSDEFNELILKIEELLYNGNPEEARKLVEEMEELVEELGDPELERYLEILKHFVEAHSSSSS
B16: il10ra_site1_normal_mot_HHH_b2_02537_000000065_0001_1_20_H_._HHH_b2_00157_af2_0001_0000200010_0000001_0 (protein)
chain: SSSSSEESEELFEEAEEKLRRLLEEGNVDEAFELLRRVIERLVELGDPEAARRLSRLFLEGSSSS
B17: il10ra_site1_normal_mot_HHH_b1_05254_000000006_0001_1_19_H_._HHH_b2_01890_af2_0001_0000300021_0000001_0 (protein)
chain: SSSSSDEEEVEERVKELLEELKHVDPDEFYELLREAIELASELNDPELLREIIKVLQEWFSSSSS
B18: il10ra_site1_sap_24_mot_e1dd4851c59bc1cdde016f988f6856bd_0001_1_000000200_0001_16_31_H_._HHH_b2_04498_0002_0000100007_0000001_0_0001 (protein)
chain: PEVKKEAEEAEELLHEAEELAEDPKMREAIRFHLDILKQAKEQDNEEALRAAIHAARALWELVLS
B19: il10ra_site1_sap_11_mot_HHH_b1_00103_000000293_0001_1_15_H_._HHH_b2_01196_af2_0001_0000500018_0000001_0_0001_af2pred_dldesign_0_af2pred (protein)
chain: SSSSSPLEEFERLKKELEELLKAGKLDEAREVLRELSRLALELNDPEKIAEVLELAKELESSSSS
B20: il10ra_site1_sap_22_mot_HHH_b1_00814_af2_000000078_0001_43_57_H_._HHH_b1_02037_0001_0000100005_0000002_1_0001 (protein)
chain: SSSSSSDIIRLAQELVRLALRKGDEEALQAVWEAVVAWARGELSEEEVEELLEKAEELLSSSSSS
B21: il10ra_site1_normal_mot_HHH_b2_04679_000000194_0001_21_38_H_._HHH_b1_06097_af2_0001_0000300026_0000001_0 (protein)
chain: SSSSDEEEERIEELLEELKRLIEEGDFQKFYRLSREVIELIHELNNEELAQILLELLREAFSSSS
B22: il10ra_site1_sap_15_mot_HHH_b1_02665_000000293_0001_1_18_H_._HHH_b1_05087_0001_0000300019_0000001_0_0001_af2pred_0001 (protein)
chain: SSSSDELQERAEELLEEAEERNDEEAAKLAKSVKYAVELAEKLGDPERAKLALRDLEADLSSSSS
B23: il10ra_site1_sap_18_mot_HHH_b1_04818_af2_000000063_0001_42_55_H_._HHH_b1_04225_af2_0002_0000100001_0000002_0_0001 (protein)
chain: SSSSDETEEVAELMREAVELDHNGDKEEAERVAREALELAEQLNNDVLRIQAEYLEKLIGSSSSS
B24: il10ra_site1_sap_19_mot_HHH_b1_05357_000000034_0001_23_39_H_._HHH_b1_06663_0001_0000100001_0000001_0_0001_af2pred_0001 (protein)
chain: SSSSSEVEQEVLRLLREASRAFIDGDPEEARKLLEQAERLAEEYNDEEAEELVKAVKEKISSSSS

These binders were tested against il10ra, Q13651 (assay: yeast display titration).

Apparent Kd, inactive:
B1 no binding seen
B2 no binding seen
B3 no binding seen
B4 no binding seen
B5 no binding seen
B6 no binding seen
B7 no binding seen
B8 no binding seen
B9 no binding seen
B10 no binding seen
B11 no binding seen
B12 no binding seen
B13 no binding seen
B14 > 7.52 µM
B15 no binding seen
B16 no binding seen
B17 no binding seen
B18 no binding seen
B19 no binding seen
B20 no binding seen
B21 no binding seen
B22 no binding seen
B23 no binding seen
B24 no binding seen

Reprinted at random: 2 records from the list
Apparent Kd, inactive:
B10 no binding seen
B11 no binding seen

From paper PMC10163288
